From publication PMC12207318
Results are given in words; binding and its absence hold for the method and conditions named. In cells and extracts the contact can be indirect. Here binding means that the protein was enriched with, or labelled near, the bait; the list need not be complete.

Biological target: Telomerase Associated Protein 1 (human (endogenous in patient-derived GSCs)) (UniProt Q99973)
Experiment: affinity purification with mass spectrometry; co-immunoprecipitation with TEP1 followed by mass spectrometry of TEP1-bound proteins (Figure 4g)

binding: binds
Substance: Kelch Like ECH Associated Protein 1 (from UniProt Q14145 1-624)
